The text below walks through data of publication doi:10.1101/2020.09.23.309518.

Chains of the proteins cited; added tags and fusions are not shown. Lines headed by an entry give the natural chain unless they say otherwise; changes in a name come on top. A line that says so, or that is headed by a name, gives the form on record, which may keep a tag or linker. Residues count along the entry.
UniProt P31749: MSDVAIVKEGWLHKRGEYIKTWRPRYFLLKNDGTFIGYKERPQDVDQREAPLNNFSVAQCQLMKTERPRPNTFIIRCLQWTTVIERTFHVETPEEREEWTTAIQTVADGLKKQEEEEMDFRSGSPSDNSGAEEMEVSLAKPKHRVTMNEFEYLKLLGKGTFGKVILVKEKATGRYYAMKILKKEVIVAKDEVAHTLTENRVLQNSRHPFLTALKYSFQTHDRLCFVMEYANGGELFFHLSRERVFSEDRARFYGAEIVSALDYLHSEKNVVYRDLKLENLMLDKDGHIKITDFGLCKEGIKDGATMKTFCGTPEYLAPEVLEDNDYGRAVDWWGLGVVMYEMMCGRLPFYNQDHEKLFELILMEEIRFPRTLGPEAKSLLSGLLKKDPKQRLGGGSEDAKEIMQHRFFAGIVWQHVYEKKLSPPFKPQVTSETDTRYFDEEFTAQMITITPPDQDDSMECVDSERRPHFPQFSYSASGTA
UniProt Q16659: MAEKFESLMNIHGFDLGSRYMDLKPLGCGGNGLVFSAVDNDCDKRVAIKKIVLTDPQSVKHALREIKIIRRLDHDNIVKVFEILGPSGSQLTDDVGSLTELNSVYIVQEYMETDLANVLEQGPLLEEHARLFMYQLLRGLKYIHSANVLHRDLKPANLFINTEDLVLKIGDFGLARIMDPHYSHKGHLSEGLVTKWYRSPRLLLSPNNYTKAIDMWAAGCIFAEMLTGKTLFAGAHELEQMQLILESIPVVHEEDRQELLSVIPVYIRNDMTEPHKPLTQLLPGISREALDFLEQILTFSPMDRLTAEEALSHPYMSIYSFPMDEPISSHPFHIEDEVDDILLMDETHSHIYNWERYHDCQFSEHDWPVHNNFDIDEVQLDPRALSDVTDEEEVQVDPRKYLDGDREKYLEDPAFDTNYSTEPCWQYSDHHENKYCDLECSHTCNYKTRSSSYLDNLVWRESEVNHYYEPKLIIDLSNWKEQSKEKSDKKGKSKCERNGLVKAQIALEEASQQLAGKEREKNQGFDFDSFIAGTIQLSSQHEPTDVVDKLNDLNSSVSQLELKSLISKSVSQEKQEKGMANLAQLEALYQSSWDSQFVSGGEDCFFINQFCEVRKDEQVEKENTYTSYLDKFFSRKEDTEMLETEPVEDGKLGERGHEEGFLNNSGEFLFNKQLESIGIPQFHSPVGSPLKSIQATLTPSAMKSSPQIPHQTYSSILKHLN
MAPK6^1-480: residues 1-480 of Q16659
MAPK6^1-439: residues 1-439 of Q16659
MAPK6^1-408: residues 1-408 of Q16659
MAPK6^1-389: residues 1-389 of Q16659
MAPK6^1-384: residues 1-384 of Q16659
MAPK6^1-379: residues 1-379 of Q16659
MAPK6^1-373: residues 1-373 of Q16659
MAPK6^1-362: residues 1-362 of Q16659
kinase domain of MAPK6 (the 1-316 aa fragment): residues 1-316 of Q16659
MAPK6 fragment containing both C34 and C-terminal tail: residues 317-721 of Q16659
C34 region of MAPK6 (the 317-480 aa fragment): residues 317-480 of Q16659
C-terminal tail of MAPK6: residues 481-721 of Q16659
full-length MAPK6 with DIDE (374-377) mutated to KIKK (Q16659, form named): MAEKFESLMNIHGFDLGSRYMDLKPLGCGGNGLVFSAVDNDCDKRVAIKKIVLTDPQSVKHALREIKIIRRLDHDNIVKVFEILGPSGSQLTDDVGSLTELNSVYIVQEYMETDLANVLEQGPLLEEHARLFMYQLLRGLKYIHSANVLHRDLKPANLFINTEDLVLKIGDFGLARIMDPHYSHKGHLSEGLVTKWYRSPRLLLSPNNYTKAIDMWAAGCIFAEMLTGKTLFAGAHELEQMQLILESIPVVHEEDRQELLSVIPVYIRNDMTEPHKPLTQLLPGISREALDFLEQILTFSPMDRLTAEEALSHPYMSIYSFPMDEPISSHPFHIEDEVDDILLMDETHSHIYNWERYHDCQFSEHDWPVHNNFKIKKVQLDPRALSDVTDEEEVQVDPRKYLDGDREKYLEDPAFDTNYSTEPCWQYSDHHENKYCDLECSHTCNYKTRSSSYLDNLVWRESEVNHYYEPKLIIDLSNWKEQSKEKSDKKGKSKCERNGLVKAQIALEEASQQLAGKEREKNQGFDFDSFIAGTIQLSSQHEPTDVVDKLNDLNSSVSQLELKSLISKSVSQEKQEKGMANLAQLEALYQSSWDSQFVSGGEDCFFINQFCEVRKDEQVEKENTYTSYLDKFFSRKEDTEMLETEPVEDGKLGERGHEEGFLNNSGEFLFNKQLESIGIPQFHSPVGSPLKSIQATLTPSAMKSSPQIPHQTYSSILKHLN
MAPK6^1-384 with DIDE (374-377) mutated to KIKK (Q16659, form named): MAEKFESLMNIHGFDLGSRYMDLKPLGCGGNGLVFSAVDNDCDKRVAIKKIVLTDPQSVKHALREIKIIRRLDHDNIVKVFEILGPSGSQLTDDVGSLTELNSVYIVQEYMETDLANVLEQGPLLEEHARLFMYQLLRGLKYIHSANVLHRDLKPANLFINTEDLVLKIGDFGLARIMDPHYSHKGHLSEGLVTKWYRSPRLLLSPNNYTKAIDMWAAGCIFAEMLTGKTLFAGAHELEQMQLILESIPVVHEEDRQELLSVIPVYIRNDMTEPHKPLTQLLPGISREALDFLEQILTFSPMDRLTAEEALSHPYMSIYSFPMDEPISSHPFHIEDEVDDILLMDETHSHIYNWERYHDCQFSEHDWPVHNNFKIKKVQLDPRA
FLAG-tagged MAPK6 mutant with EEDRQE mutated to AAARAA (Q16659, form named): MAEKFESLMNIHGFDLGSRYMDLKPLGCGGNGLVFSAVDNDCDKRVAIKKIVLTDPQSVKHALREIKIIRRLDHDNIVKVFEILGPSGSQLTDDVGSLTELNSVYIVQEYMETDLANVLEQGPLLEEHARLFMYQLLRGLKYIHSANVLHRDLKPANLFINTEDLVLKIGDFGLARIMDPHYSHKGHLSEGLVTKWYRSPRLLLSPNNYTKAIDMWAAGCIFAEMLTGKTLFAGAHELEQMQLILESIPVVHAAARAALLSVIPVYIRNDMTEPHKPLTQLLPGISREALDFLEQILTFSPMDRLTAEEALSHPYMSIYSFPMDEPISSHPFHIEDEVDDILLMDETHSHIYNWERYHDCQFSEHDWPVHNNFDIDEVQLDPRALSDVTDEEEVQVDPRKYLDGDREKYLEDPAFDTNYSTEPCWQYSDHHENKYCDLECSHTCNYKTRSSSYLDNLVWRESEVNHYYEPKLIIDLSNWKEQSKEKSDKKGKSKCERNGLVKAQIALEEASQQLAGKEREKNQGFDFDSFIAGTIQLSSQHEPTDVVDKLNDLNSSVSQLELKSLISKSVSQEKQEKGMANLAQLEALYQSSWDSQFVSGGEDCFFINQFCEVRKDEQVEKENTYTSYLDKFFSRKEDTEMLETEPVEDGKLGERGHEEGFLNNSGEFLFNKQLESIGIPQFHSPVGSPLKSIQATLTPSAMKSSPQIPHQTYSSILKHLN
MAPK6^1-480 mutant with an internal 363-379 deletion (Q16659, form named): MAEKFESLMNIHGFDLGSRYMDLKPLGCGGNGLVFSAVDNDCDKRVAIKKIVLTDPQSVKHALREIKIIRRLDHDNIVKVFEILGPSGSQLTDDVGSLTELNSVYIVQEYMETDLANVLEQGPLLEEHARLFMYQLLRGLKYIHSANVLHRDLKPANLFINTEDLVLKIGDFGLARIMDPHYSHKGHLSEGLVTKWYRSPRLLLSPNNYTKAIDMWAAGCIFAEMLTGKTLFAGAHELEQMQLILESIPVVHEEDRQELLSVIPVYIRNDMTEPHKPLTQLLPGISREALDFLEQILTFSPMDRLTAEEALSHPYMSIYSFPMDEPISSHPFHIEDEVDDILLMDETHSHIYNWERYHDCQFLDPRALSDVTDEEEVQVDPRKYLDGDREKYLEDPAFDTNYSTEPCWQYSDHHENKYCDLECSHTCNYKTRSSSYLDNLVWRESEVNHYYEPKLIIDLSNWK
UniProt Q8IW41: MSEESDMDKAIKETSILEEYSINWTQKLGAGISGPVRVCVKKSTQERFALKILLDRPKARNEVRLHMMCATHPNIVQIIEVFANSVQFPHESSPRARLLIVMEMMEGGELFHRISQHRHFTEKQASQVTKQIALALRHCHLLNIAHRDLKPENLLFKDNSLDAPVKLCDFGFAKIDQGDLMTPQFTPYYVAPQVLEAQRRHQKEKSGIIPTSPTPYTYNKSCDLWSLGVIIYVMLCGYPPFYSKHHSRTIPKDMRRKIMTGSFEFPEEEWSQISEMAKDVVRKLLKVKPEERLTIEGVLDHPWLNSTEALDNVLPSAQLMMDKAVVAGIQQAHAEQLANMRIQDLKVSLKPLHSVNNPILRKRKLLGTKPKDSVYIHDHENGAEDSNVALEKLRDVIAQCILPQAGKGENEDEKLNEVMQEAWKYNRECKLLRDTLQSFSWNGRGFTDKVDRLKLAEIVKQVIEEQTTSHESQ

Test [1] concerns the target FLAG-tagged AKT1 (UniProt P31749). Briefly: co-IP.
Test [2] has the same target. As to the kind of experiment: co-IP. This is another data set of the same source.
In test [3] the target is MAPK6^1-439 (human) (UniProt Q16659). As to the kind of experiment: co-IP.
The target of test [4] is full-length MAPK6 with DIDE (374-377) mutated to KIKK (human) (UniProt Q16659). Briefly: co-IP.
In test [5] the target is MAPK6^1-384 with DIDE (374-377) mutated to KIKK (human) (UniProt Q16659). Briefly: co-IP.
For test [6], the target named is MAPK6^1-408 (human) (UniProt Q16659). Briefly: co-IP.
In test [7] the target is MAPK6 fragment containing both C34 and C-terminal tail (human) (UniProt Q16659). Briefly: co-IP.
The target of test [8] is MAPK6^1-379 (human) (UniProt Q16659). As to the kind of experiment: co-IP.
Test [9] addresses C34 region of MAPK6 (the 317-480 aa fragment) (human) (UniProt Q16659). As to the kind of experiment: co-IP.
Test [10] addresses FLAG-tagged MAPK6 (wild type, full length) (human) (UniProt Q16659). As to the kind of experiment: co-IP.
For test [11], the target named is kinase domain of MAPK6 (the 1-316 aa fragment) (human) (UniProt Q16659). Briefly: co-IP.
For test [12], the target named is MAPK6^1-480 (human) (UniProt Q16659). Briefly: co-IP.
Test [13] has as its target MAPK6^1-389 (human) (UniProt Q16659). As to the kind of experiment: co-IP.
In test [14] the target is FLAG-tagged MAPK6 mutant with EEDRQE mutated to AAARAA (human) (UniProt Q16659). As to the kind of experiment: co-IP.
For test [15], the target named is FLAG-tagged S189A mutant MAPK6 (human) (UniProt Q16659). Briefly: co-IP.
In test [16] the target is MAPK6^1-362 (human) (UniProt Q16659). As to the kind of experiment: co-IP.
For test [17], the target named is MAPK6^1-384 (human) (UniProt Q16659). As to the kind of experiment: co-IP.
For test [18], the target named is MAPK6^1-373 (human) (UniProt Q16659). Briefly: co-IP.
The target of test [19] is C-terminal tail of MAPK6 (human) (UniProt Q16659). Briefly: co-IP.
For test [20], the target named is MAPK6^1-480 mutant with an internal 363-379 deletion (human) (UniProt Q16659). Briefly: co-IP.
For test [21], the target named is GST-MAPK6 fusion protein (human) (UniProt Q16659). As to the kind of experiment: pull-down.

Read-outs that look alike come from different tables or passages of the source. These are yes or no findings as the source states them, for the method shown. For some of these results: Binding seen in cells or lysates may run through a third protein. Some entries that bind do so weakly or less than the wild type.

Regarding “HA-tagged MAPK6 (from UniProt Q16659 1-721)”, the binding entry in test [1] and in test [2] was “binds” throughout.

On to “His-tagged AKT1 (from UniProt P31749 1-480)”, for which the binding entry in test [3] is recorded as “binds”; in test [4], “binds”; in [5], “no binding”; in test [6] it was “binds”; in test [7], “binds”; in test [8] it was “binds”. Moreover, the binding entry in test [9] is “binds”; in [10], “binds”; in test [11], “no binding”; in [12], “binds”; in [13], “binds”; in [14], “binds”. The binding result in test [15] is “binds”; in [16], “no binding”; in [17] it was “binds”; in [18], “no binding”; in [19], “binds”.

“MAP kinase-activated protein kinase 5 (from UniProt Q8IW41 1-473)”: the binding entry in [20] and in test [12] was “binds” throughout.

For “commercially available purified AKT1 protein (from UniProt P31749 1-480)”, the binding entry in test [21] is given as “binds”.
